Consider two molecules from paper PMC10184829.

By UniProt entry, the sequences of proteins in these tests, tags left out.
UniProt P59242: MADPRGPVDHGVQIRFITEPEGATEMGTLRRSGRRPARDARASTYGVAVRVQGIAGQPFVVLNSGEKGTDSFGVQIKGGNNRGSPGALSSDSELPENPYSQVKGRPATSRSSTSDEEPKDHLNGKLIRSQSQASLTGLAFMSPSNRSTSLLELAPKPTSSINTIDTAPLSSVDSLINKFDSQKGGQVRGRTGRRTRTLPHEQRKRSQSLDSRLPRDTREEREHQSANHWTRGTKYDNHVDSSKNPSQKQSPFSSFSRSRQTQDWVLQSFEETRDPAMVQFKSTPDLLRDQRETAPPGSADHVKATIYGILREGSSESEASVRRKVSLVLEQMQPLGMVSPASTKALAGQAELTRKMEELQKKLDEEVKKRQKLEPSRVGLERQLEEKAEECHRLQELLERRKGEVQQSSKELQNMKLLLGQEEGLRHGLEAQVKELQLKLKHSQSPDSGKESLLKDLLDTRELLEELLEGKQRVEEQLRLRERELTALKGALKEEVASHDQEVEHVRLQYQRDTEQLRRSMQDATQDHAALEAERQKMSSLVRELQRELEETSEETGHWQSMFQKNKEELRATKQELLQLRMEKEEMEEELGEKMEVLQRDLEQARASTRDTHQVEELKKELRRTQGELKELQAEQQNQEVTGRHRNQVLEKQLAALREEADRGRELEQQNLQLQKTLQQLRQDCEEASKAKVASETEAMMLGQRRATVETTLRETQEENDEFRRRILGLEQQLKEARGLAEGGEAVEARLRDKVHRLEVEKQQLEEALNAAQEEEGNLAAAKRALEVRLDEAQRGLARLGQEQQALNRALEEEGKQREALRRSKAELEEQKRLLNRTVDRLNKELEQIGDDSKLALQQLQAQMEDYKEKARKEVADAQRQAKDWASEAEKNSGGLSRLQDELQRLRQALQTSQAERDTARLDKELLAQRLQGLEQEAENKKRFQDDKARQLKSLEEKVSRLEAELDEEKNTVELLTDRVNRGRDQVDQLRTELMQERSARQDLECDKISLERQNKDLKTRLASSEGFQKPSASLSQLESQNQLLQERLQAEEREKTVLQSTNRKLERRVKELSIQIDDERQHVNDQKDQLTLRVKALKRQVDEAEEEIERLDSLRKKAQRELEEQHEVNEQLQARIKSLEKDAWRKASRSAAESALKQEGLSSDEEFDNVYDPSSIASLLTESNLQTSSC

Read-outs that look alike come from different tables or passages of the source. No constants are given. Whether binding was seen depends on the method and setting. Binding seen in cells or lysates may run through a third protein. Some results given as binding are weak or reduced against the parent protein; the word gives no strength. Where a sequence is shown, tags or fusion partners need not be part of it.

Experiment [1] deals with T1, GST-tagged truncated mouse CAMSAP3 (CC1+2: 600-729) (mouse) (UniProt Q80VC9).
T1 sequence: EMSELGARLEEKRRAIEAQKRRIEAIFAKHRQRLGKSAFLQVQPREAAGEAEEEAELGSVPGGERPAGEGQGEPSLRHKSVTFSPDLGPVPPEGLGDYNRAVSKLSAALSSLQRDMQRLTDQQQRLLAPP
Description: pull-down; GST fusion proteins as baits; GFP-tagged preys expressed in HEK293T cells, in lysates; immunoblot with anti-GFP antibodies; only the target purified.

Experiment [2] concerns the target T1, GST-tagged truncated mouse CAMSAP3 (CC1+2: 600-729) (mouse). The description is as above. The source holds these as a separate data set.

On to “GFP-tagged full-length mouse CGN (cingulin) (from UniProt P59242 1-1191)”, for which the binding entry in experiment [1] is “no binding”.

B1: GFP-tagged full-length mouse CGNL1 (protein, UniProt Q6AW69 1-1297)
chain: MELYFGEYQHVQQEYGVHLRLASGDTPKPRNSQPSKAGSYGVSIRVQGIDGHPYIVLNNTERCLAGTPFPENAPSFPSSVINNLSLHPSNGTVLKENTPEELQLPENPYLQTSPLRGQKQFSLHEGRNGVLERKDGPTKLPHVLNFQRHPELLQPYDPEKNEVNAKKHHPPESPWLRNATEDGTNCKKSRNCFPKSYGSQPNSPTSEDLAKTNMTAIRLCSSVVIEDPQKQTSVCVNVQRCAKEGVGEETLSPRRKSPTAPSPQAYSETKKNRPDVLPFRRQDSAGPILDGARSRRSSSSSTTPTSATSLYKFLLDDQECAIHADSVNRHENRRYIPFLPGTGRDIDTCSIPGVDQLIEKFDQKPGLQRRGRSGKRNRINPDDRKRSRSVDSAFPFGLQGNTEYLTEFSRNLGKSSEHLLRPSQVFPQRSVAQEHRGKHSPSSPPAKLQGAQGAHPKPPLQNKDGKVLNKGRQESTGACAPSLPAPNKKEEEIKIATATLMLQNRAVAATSDSGAKKISVKTFPSDSSTQATPDLLKGQQELTQQTNEETAKQILYNYLKEGGTDNEDATKRKVNLVFEKIQTLKSRAAGSAQGSNQAPNSPSEGNSLLDQKNKLILEVSELQQQLQLEMKNQQNIKEERERMREDLEELRVRHQSQVEETATLQRRLEESEGELRKSLEELFQVKMEREQHQTEIRDLQDQLSEMHDELDSTKRSEDREKGALIEELLQAKQDLQDLLIAKEEQEDLLRKRERELTALKGALKEEVSSHDQEMDKLKEQYDAELQALRESVEEATKNVEVLASRSNSSEQSQAEADLREKVLKEENEKLQGRIAELERRAAQLQRQMEDVKGDEAQAKETLRKCESEVQQLEEALVHARKEEKEATCARRALEKELEQARRELSQVSQEQKELLEKLRDEAEQKEQLRKLKNEMESERWHLDKTIEKLQKEMADIAEASRTSSLELQKQLGEYKEKNRRELAEMQTQLKEKCLEVEKARLAASKMQDELRLKEEELQDYQRAEEEALTKRQLLEQSLKDLEYELEAKSHLKDDRSRLIKQMEDKVSQLEIELEEERTNADLLSERITWSREQMEQMRSELLQEKAAKQDLECDKISLERQNKDLKSRIIHLEGSYRSSKEGLVVQMEARIAELEDRLENEERDRANLQLSNRRLERKVKELVMQVDDEHLSLTDQKDQLSLRLKAMKRQVEEAEEEIDRLESSKKKLQRELEEQMGVNEQLQGQLNSLKKGLRLKTLSSKVLDDSDDDDLSSDAGSLYEAPLSYAFPKDSTIASQI
Turning to B1, in experiment [2], the binding result is given as “binds”.
